Construct, isoform or probe ends are uncertain for at least one entry. For some of these results: Negatives hold for the conditions tested. For some of these results: At least one verdict rests on a figure or table, not on a statement of the authors. For some of these results: Where cells or extracts were used, other partners may take part.
Legend:
[1] = molecular target: recombinant human AGO2 (rhAGO2) (Homo sapiens) (UniProt Q9UKV8); test: EMSA; settings: EMSA: 10 mM HEPES-KOH pH 7.4, 50 mM KCl, 1 mM DTT, 3% Ficoll-400, 0.1 mg/ml BSA, 10 nM RNA, 0-200 nM hAGO2, 30 min at 25 or 37 C, 6% native gel at 4 C, recombinant protein, protein details: N-terminal FLAG and His; for binding result: 37 C
FLAG-AGO2 (Homo sapiens) [2] = molecular target: FLAG-AGO2 (Homo sapiens) (UniProt Q9UKV8); test: EMSA (agarose native gel RISC assembly); settings: EMSA: 10 mM HEPES-KOH pH 7.4, 50 mM KCl, 1 mM DTT, 3% Ficoll-400, 0.1 mg/ml BSA, 10 nM RNA, 0-200 nM hAGO2, 30 min at 25 or 37 C, 6% native gel at 4 C, protein in a lysate after overexpression, protein details: FLAG, label: 32P guide strand
FLAG-AGO2 (Homo sapiens) [3] = molecular target: FLAG-AGO2 (Homo sapiens) (UniProt Q9UKV8); test: FLAG pull-down; settings: 37 C, protein in a lysate after overexpression, protein details: FLAG, label: 32P guide strand
[4] = molecular target: FLAG-AGO2 F181A (N domain mutant) (Homo sapiens) (UniProt Q9UKV8); test: EMSA (agarose native gel RISC assembly); settings: EMSA: 10 mM HEPES-KOH pH 7.4, 50 mM KCl, 1 mM DTT, 3% Ficoll-400, 0.1 mg/ml BSA, 10 nM RNA, 0-200 nM hAGO2, 30 min at 25 or 37 C, 6% native gel at 4 C, protein in a lysate after overexpression, protein details: FLAG, label: 32P guide strand
[5] = molecular target: FLAG-AGO2 dN (Homo sapiens) (UniProt Q9UKV8); test: EMSA (agarose native gel RISC assembly); settings: EMSA: 10 mM HEPES-KOH pH 7.4, 50 mM KCl, 1 mM DTT, 3% Ficoll-400, 0.1 mg/ml BSA, 10 nM RNA, 0-200 nM hAGO2, 30 min at 25 or 37 C, 6% native gel at 4 C; protein in a lysate after overexpression; protein details: FLAG; label: 32P guide strand
[6] = molecular target: FLAG-AGO2 D597A (PIWI catalytic mutant) (Homo sapiens) (UniProt Q9UKV8); test: EMSA (agarose native gel RISC assembly); settings: EMSA: 10 mM HEPES-KOH pH 7.4, 50 mM KCl, 1 mM DTT, 3% Ficoll-400, 0.1 mg/ml BSA, 10 nM RNA, 0-200 nM hAGO2, 30 min at 25 or 37 C, 6% native gel at 4 C, protein in a lysate after overexpression, protein details: FLAG, label: 32P guide strand
FLAG-AGO4 (Homo sapiens) = FLAG-AGO4 (Homo sapiens) (UniProt Q9HCK5); test: EMSA (agarose native gel RISC assembly); settings: 37 C; EMSA: 10 mM HEPES-KOH pH 7.4, 50 mM KCl, 1 mM DTT, 3% Ficoll-400, 0.1 mg/ml BSA, 10 nM RNA, 0-200 nM hAGO2, 30 min at 25 or 37 C, 6% native gel at 4 C; protein in a lysate after overexpression; protein details: FLAG; label: 32P guide strand
FLAG-AGO3 (Homo sapiens) = FLAG-AGO3 (Homo sapiens) (UniProt Q9H9G7); test: EMSA (agarose native gel RISC assembly); settings: 37 C; EMSA: 10 mM HEPES-KOH pH 7.4, 50 mM KCl, 1 mM DTT, 3% Ficoll-400, 0.1 mg/ml BSA, 10 nM RNA, 0-200 nM hAGO2, 30 min at 25 or 37 C, 6% native gel at 4 C; protein in a lysate after overexpression; protein details: FLAG; label: 32P guide strand
FLAG-AGO1 (Homo sapiens) = FLAG-AGO1 (Homo sapiens) (UniProt Q9UL18); test: EMSA (agarose native gel RISC assembly); settings: 37 C; EMSA: 10 mM HEPES-KOH pH 7.4, 50 mM KCl, 1 mM DTT, 3% Ficoll-400, 0.1 mg/ml BSA, 10 nM RNA, 0-200 nM hAGO2, 30 min at 25 or 37 C, 6% native gel at 4 C; protein in a lysate after overexpression; protein details: FLAG; label: 32P guide strand

Sequence: UGGAAUGUAAAGAAGUAUGUA [miR-1 guide ssRNA]
- binding result ([1]; label: 32P): binds

Sequence: UGAGGUAGUAGGUUGUAUAGUU / CUGUACAGCCUCCUAGCUUUCC [let-7a-2 miRNA duplex]
- binding result (FLAG-AGO2 (Homo sapiens) [2]; 25 C): binds

Sequence: UGGAAUGUAAAGAAGUAUGUA / CAUACUUCUUUACAUUCCCUA [miR-1 siRNA-OMe duplex]
- binding result (FLAG-AGO2 (Homo sapiens) [2]; unwinding reduced, complete maturation at 42 C, passenger fully 2'-OMe, letters put together from the description): binds

Sequence: UGGAAUGUAAAGAAGUAUGUA / CAUACUUCUUUAUAUGCCCAUA [miR-1 miRNA duplex]
- binding result ([1]; label: 32P guide strand): no binding
- binding result (FLAG-AGO2 (Homo sapiens) [3]): binds
- binding result ([4]; unwinding less efficient than wild type at 25 C): binds
- binding result [5]: no binding

Sequence: UGGAAUGUAAAGAAGUAUGUA / CAUACUUCUUUAUAUGCCCAUA [miR-1-OMe duplex]
- binding result (FLAG-AGO2 (Homo sapiens) [2]; 25 C and 37 C, passenger fully 2'-OMe): binds

Sequence: UGGAAUGUAAAGAAGUAUGUA / CAUACUUCUUUACAUUCCCUA [miR-1 siRNA-OMe9 duplex]
- binding result ([6]; 37 C, 2'-OMe at passenger nt 9, letters put together from the description): binds
- binding result ([4]; pre-RISC forms, slower unwinding, 2'-OMe at passenger nt 9, letters put together from the description): binds
- binding result (FLAG-AGO2 (Homo sapiens) [2]; pre-RISC at 15 C, mature RISC after shift to 37 C, 2'-OMe at passenger nt 9, letters put together from the description): binds

Sequence: UGGAAUGUAAAGAAGUAUGUA / CAUACUUCUUUACAUUCCCUA [miR-1 siRNA PS duplex]
- binding result ([1]; phosphorothioate (PO/PS) between passenger nt 9 and 10, label: 32P guide strand): no binding
- binding result (FLAG-AGO2 (Homo sapiens) [3]; phosphorothioate (PO/PS) between passenger nt 9 and 10): binds

Sequence: UGAGGUAGUAGGUUGUAUAGU / UAUACAACCUACUACCUCUUC [let-7a siRNA-OMe9 duplex]
- binding result (FLAG-AGO2 (Homo sapiens) [2]; unwound at 37 C, hardly at 25 C, 2'-OMe at passenger nt 9): binds

Sequence: UGAGGUAGUAGGUUGUAUAGUU / CUAUACAAUCUACUGUCUUUC [let-7a-1 miRNA duplex]
- binding result (FLAG-AGO2 (Homo sapiens) [2]; 25 C): binds

Sequence: UGGAAUGUAAAGAAGUAUGUA / CAUACUUCUUUACAUUCCCUA [miR-1 siRNA duplex]
- Kd ([1]; 25 C, label: 32P guide strand): > 200 nM
- binding result ([1]; label: 32P guide strand): no binding
- binding result (FLAG-AGO2 (Homo sapiens) [3]): binds
- binding result [6]: binds
- binding result (FLAG-AGO4 (Homo sapiens)): binds
- binding result (FLAG-AGO3 (Homo sapiens)): binds
- binding result (FLAG-AGO1 (Homo sapiens)): binds

Source: publication PMC4627090
